Assay [1] concerns the target T1, cystatin SN (CST1), recombinant human protein (human) (UniProt P01037).
T1 sequence: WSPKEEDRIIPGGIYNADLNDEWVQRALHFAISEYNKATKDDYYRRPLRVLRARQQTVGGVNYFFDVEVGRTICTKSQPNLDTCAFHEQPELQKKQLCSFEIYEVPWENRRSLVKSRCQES
Briefly: co-IP; purified His-tagged extracellular segments with or without recombinant CST1; precipitated with anti-CST1 antibody; western blot with anti-His; both purified.

Amino acid sequences for entries named in this document (tags omitted). A change or cut given only in a name is not applied to a line headed by its entry.
UniProt D4A109: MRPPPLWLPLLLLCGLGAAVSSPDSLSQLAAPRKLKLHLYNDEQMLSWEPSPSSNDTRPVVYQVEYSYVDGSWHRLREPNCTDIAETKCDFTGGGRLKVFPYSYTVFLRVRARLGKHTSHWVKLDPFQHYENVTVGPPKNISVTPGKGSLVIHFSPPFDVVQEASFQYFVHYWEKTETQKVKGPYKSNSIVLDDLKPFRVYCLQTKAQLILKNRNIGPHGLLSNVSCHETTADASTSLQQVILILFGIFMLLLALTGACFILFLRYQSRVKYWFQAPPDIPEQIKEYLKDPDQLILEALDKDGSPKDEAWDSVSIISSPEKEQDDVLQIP

In assay [2] the target is T1, cystatin SN (CST1), recombinant human protein (human). Briefly: co-IP; recombinant proteins CST1, IFNGR1, IFNGR2; precipitated with anti-CST1 antibody (Rat IgG as negative control); western blot with anti-CST1, anti-IFNGR1 or anti-IFNGR2; both purified. Background: Immunoblotting shows a protein as a band on a membrane.
In assay [3] the target is T2, CST1 Mut 1 (deletion of the motif aa 76-80), His-tagged (human) (UniProt P01037).
T2 sequence: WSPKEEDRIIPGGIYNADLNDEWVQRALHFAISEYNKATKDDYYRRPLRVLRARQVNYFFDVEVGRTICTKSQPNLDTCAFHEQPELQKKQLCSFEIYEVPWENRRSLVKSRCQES
Briefly: co-IP; wild-type or His-tagged mutant CST1 proteins with IFNGR1; western blot with anti-His; precipitating antibody not told; both purified.

Assay [4] concerns the target T3, CST1 Mut 3 (disulfide bond aa 118,138 mutated from cysteine to glycine), His-tagged (human) (UniProt P01037).
T3 sequence: T1 sequence with C98G, C118G
Described as above.

For assay [5], the target named is T1, cystatin SN (CST1), recombinant human protein (human). The description is as above.
The target in assay [6] is T4, CST1 Mut 2 (disulfide bond aa 94,104 mutated from cysteine to glycine), His-tagged (human) (UniProt P01037).
T4 sequence: T1 sequence with C74G, C84G
The description is as above.

Changes are numbered by the printed parent chain. These are yes or no findings as the source states them, for the method shown. Binding seen in cells or lysates may run through a third protein. For some assays here: Binding can be weak; no strength is given. For some assays here: Tags and fused reporters may be left off the sequences shown.

Regarding “IFNGR1-EC, His-tagged IFNGR1 extracellular segment (aa: 1-241) (rat) (domain or fragment)”, in assay [1], the binding result is “binds”.
Turning to recombinant IFNGR1 protein (receptor), the binding entry is on record as “binds” in assay [2]; “no binding” in assay [3]; “no binding” in assay [4]; “binds” in assay [5]; “no binding” in assay [6].
As for “IFNGR2-EC, His-tagged IFNGR2 extracellular segment (aa: 1-240) (from UniProt D4A109) (domain or fragment)”, the binding result in assay [1] is “binds”.
Regarding recombinant IFNGR2 protein (receptor), in assay [2], the binding result was “binds”.

These data come from paper PMC9892047.
